Drawing on PubChem BioAssay AID1508600 (Functional Genomics Laboratory (NCATS/FGL), 2020), this text covers z-score for 107 sequences.

The campaign covered roughly 53,000 sequences. About 3,700 (7%) were called active.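 Rule for the calls: active = gene knockdowns whose robust z-score for IL-1 alpha signal is at least 2 or at most -2, so actives lie on both sides; inactive = the rest.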 The list shows a part of the results.

A short description of the experiment: Components of the Cytosolic LPS Sensing Pathway: Gene Identification via Genome-wide siRNA Screen.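 Note: robust z of the log signal after scaling to non-targeting control siRNA wells of the plate.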 Particulars: RAW264.7 macrophages, IL-1a HTRF, actives lie on both sides, screened at 100 nM (by protocol), cells primed 5 h with Pam3CSK4 first. The method in brief:
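Read-out: IL-1a HTRF on supernatant, divided by plate negative-control median ×100, log-transformed and converted to robust z-score. Cells were RAW264.7 given 100 nM siRNA, Pam3CSK4-primed 5 hours, then LipidA-transfected 24 hour.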
Consider CCAUGCGAAAGAGUAUAAATT against Mtss2, for which the z-score is inactive: 0.152.
Regarding GGUGCUCUGCAUAUUCUGGTT against Olfr654, the z-score was inactive: 0.55.
With GGUGUCAAUAACAUAUCAGTT against Nav1, the z-score is inactive: 0.749.
As to GCUAAAGCAGCCAAGUAUGTT against Eln, the z-score is inactive: 0.451.
Consider CGAAAACGUGAAAUAUCUCTT against Gpd1l, for which the z-score was inactive: -0.399.
In the case of CGUGUCAGCUAUUCAUUAATT against Osbpl5, the z-score is inactive: 0.644.
With GGGCCAGUACUGUAGCUGUTT against Golga3, the z-score was inactive: 0.851.
Turning to CGACAAGACGAACAUCAAGTT against Nrn1, the z-score was inactive: 0.746.
Consider GCUAAAAUUGGAUCAAGGATT against Ackr2, for which the z-score is inactive: 1.39.
In the case of CCGCGUCUGUAUUUGAUAUTT against Sccpdh, the z-score was inactive: 1.68.
The result for GGAUAUACAAAGGAACGCATT against Wdr20rt reads inactive: -0.862; that for GCCUCAGACAGACUUCUUGTT against Rpain, inactive: -0.278.
GGGCUAUCUAUCAUAGUUUTT against Scp2: the z-score was inactive: 1.17.
Next, CCGUCUAUGUAUCGGUGUUTT against Prlhr: inactive: 1.5; GAGGUUACUUCAAAGACAATT against Med31: inactive: -0.233.
GGGAGACUGCUUCUAGCUGTT against Ncdn: the z-score was inactive: -0.89.
Next, GGAAGCUUCAGGAGUAUAUTT against Sdc2: inactive: -0.326; GUGUUUACACCCAAAAUGCTT against Olfr906: inactive: -1.25.
Next, GUGUGACUUUUUGACUAUUTT against Klhl2: inactive: 0.149.
As to GGGUAUGGAUUCAGGUAGATT against Ppp3r2, the z-score is inactive: -0.847.
On to GGAAGGAUCUAAUCUUUUUTT against Vamp2, for which the z-score is inactive: 1.56.
Turning to GGCAGCAGUAAAGAAAAAGTT against Aimp2, the z-score was inactive: -0.598.
Take GGAUUGCUGUGCCUUAUGATT against Il34: the z-score is inactive: -1.81.
For GGCUUUGAAAGUUACCGGGTT against Sipa1, the z-score is inactive: -0.454.
Take GGUUGUUGGAAAAAUAGAUTT against Tmem175: the z-score is inactive: -0.0383.
Next, GGACAUUGAGAACAUUAUCTT against Caln1: inactive: -1.14; CGAACAACAGAGUAAAAUUTT against Ank2: inactive: -0.535; GGAAGAAGAGGAGGAGAUGTT against Zbtb7b: active: 3.17.
Regarding GGCUCUGUCAAGUUCAUCATT against Tgm2, the z-score was inactive: -0.338.
As for GGAAUCAAACGGACAAACATT against Lmod1, the z-score is inactive: 0.773.
Regarding GGAAUAUCCCAACAUCUGUTT against Upp1, the z-score is inactive: -0.899.
The result for GCCACACACGAUUUCAAGUTT against H3c1 reads inactive: -1.18; that for GGAGAGCGAAGAAGACUGUTT against Psen2, inactive: 1.21; that for GGAGUAGUAGCUGAAUUUGTT against Abcc3, inactive: 0.317.
As for CCAAUAACUACUCAUACCCTT against Ints1, the z-score is inactive: 0.105.
GGCUAGAGAGGAUCUUGAGTT against Cdkn2a: the z-score is inactive: 0.273.
Next, GACAGUGCACGAUCUGAUUTT against Pfn3: inactive: 0.274; GCAUUACAUAACAUGGCCATT against Sumo3: inactive: -0.616; GGAAGAAGCCCAAGGACUUTT against Donson: inactive: -1.59.
Consider GCAACAAAUUCCUAGGCACTT against Pmp2, for which the z-score was inactive: -0.762.
Regarding GCACUUCGCCCACUGUUUATT against Nhej1, the z-score is inactive: -1.58.
The result for “CCAAAGUUAUCUUUUAUGGTT against D830013H23Rik” reads inactive: -0.282; that for GGGACUACCAUUUGUUAAUTT against Tktl1, inactive: 0.751.
Consider GAGCCAGUCCAUCAUGAUGTT against Pdgfrl, for which the z-score is inactive: -0.642.
On to CGGCGUAUGAGGAUUGGUUTT against Atp8b1, for which the z-score is inactive: -0.739.
Turning to GGAACGAGAUGCAGCUAUCTT against Cry1, the z-score was inactive: -0.836.
In the case of GGAUUUACUUCACUAAUCCTT against Vmn2r37, the z-score was inactive: 0.645.
Next, GGAUCCUGCAUCUUAUAGUTT against Tcstv3: inactive: 0.468.
GGAGACUGUGGAUUUAAUUTT against Sult1a1: the z-score is active: 2.07.
The result for GCCAUUCCGGCAGUAUUACTT against Pdcd7 reads inactive: 0.0894; that for CGGAUGUGAGAAAAGAGUUTT against Ndufc1, inactive: -0.0739; that for CCUCAAGGGCUGAUGCAUGTT against Gpkow, inactive: -0.528.
The result for AGUGCUCAUUAACUGUCGCTT against Snrpd2 reads active: -2.75; that for GGCUGAAGAGAAUCUUUUATT against Il9r, inactive: -0.368; that for GGAUCUCUGUUUCUCAAAATT against Slc19a3, inactive: -0.146.
With CGGACUCGAUAACCAUCAGTT against Smurf1, the z-score is inactive: -1.9.
As for GGUGCAGCACUUCAAAGUGTT against Grap, the z-score was active: 2.41.
Next, GCUUGUUGGUGGUCUCCUGTT against Spink7: active: -2.28; GGUCACUUCCUUAAUUUUATT against Disc1: inactive: -1.62; GGAGAAUGGUCUUAGGUUUTT against Tubb2b: inactive: 1.85.
As for CGGAAUCUGACUGGUAUCGTT against Banp, the z-score was inactive: -1.21.
Consider GGAAGAUGCCAUUUAUUGGTT against Sgpl1, for which the z-score was inactive: -0.273.
Consider GGGACAAUCAACACAAAAUTT against Ythdf3, for which the z-score is inactive: 0.172.
Take GGGAACAAAAACAUAAAAGTT against Otub2: the z-score was inactive: -1.17.
As for GGUUUUAGAAUUCUGGACGTT against Plppr2, the z-score is inactive: 0.243.
Turning to GGAAAUUUGAGACUCUGCUTT against Nsun6, the z-score was inactive: -0.477.
On to UUGACUCACCUUCCGAGGUTT against Lce1a1, for which the z-score was inactive: 0.0827.
Regarding GGAAUGCAAACAGCACUUGTT against Rab33b, the z-score is inactive: -1.58.
The result for GGGAGAUCCGAAGUGGAUCTT against Sult2a2 reads inactive: -0.665; that for GGAGAGAUGCCUUUUAAGUTT against Zfp954, inactive: -0.252; that for CCUCUCCUACACUUCAAAATT against Unc45b, inactive: 0.221.
In the case of GGGAAUGUGACCAUCAAGCTT against Arl8a, the z-score was inactive: 0.931.
As for GGAAGAGGAUGACAAGACATT against Yipf2, the z-score was inactive: 0.605.
For CGCGUCAUUAUCAAGUGCCTT against Dnpep, the z-score was inactive: 1.64.
Next, CGAGAUAUUCGUGGACUAUTT against Snrnp35: inactive: -1.65; GCUUUGACAACCUCUACUCTT against Armh3: inactive: 0.369.
Next, GCUGUUACCAGGUUUAAGUTT against Hinfp: inactive: 0.00861; GGGACAAAUGGAUCAAGAUTT against Ganab: inactive: 0.11; GGACCUCAGCUUACCUAGCTT against Stra6l: inactive: 0.669.
Regarding GCUGACCAAAGUCACUCCCTT against Aqp1, the z-score was inactive: 0.13.
Turning to GGAGCUAACUGUCAAUGGATT against Usp17la, the z-score was active: 2.8.
Consider GCUGGAGGACUCAUGUUCATT against Dimt1, for which the z-score is inactive: -0.0153.
GGAUUAUGAGAUGAAAUCUTT against Serpinb9b: the z-score is inactive: 0.791.
Regarding CCUCACACUUCACUACUGATT against Rpain, the z-score was inactive: -0.221.
Regarding GCGCAAAAGGACCUAUGAGTT against Rela, the z-score is inactive: -0.342.
For GGAACCACACAUUUAAAAUTT against Ctsh, the z-score was inactive: 0.0631.
Take GCACCUCUACUAUGAGGCUTT against Cfap57: the z-score is inactive: -1.9.
Regarding GGUUUGGGAUGUUCGAGUUTT against Slc25a1, the z-score was inactive: -1.1.
Next, CCUUUUACUUAGACAUCCUTT against Pstpip2: inactive: -0.284; GCCAGAAGACUGUAUACCATT against Rp9: inactive: -0.0396; GGCACAAGGCCUUUAGCACTT against Olfr583: inactive: -0.0445.
Turning to CCAGGUGCUAUGAGAUUAGTT against Setd4, the z-score is inactive: 1.
The result for GGCAGAUGCGUAUCUCAAUTT against Gpr39 reads inactive: 0.7; that for GGUUAGAGGAAAGGUUUAUTT against Htr1f, active: 5.07.
As to GCAUGCUAGAUGUGGUCUGTT against Ccdc117, the z-score is inactive: 0.0779.
The result for GCAACAAUAUUGCUCUAGATT against Galntl6 reads inactive: -0.452; that for GGAUCAUUAAACAACCUGATT against Nrcam, inactive: -0.186.
For the sequence GCUACAAACCGUUUAAUAATT against Knstrn, the z-score was inactive: 0.223.
The result for GCCUUGUCAUAUGGGUUCCTT against Timm17b reads inactive: -0.915; that for GGUUGCUGGAUGUCAUCUCTT against Hpn, active: -2.05.
The result for GGUUUUGGGAAGUUAUUAATT against Lsg1 reads inactive: 1.56.
In the case of CGAUGUACUCCAUGUUGGGTT against Bpifb6, the z-score was active: 3.47.
As to GGGACUUCAUUUUAUUCUGTT against Morc4, the z-score was inactive: 0.0714.
Take GGGAUUCCCAAGGAUGAAGTT against Ghrh: the z-score was inactive: -1.66.
As to CGGCUCUUUCUUGUGGAUATT against Ggta1, the z-score is inactive: 0.384.
In the case of CCUCUUCAACAAACAAGCATT against Zscan22, the z-score is inactive: -0.379.
Take GGAAAAUGCCAUUCAUUUUTT against Fam71e2: the z-score is inactive: 0.948.
